Measured values from US11279626B2, “Octamethylcyclotetrasiloxane interacts with lithium ions” (Board of Trustees of the California State University, priority 2018, dated 2022).

Experiment: Lithium ion extraction from aqueous LiCl solutions by cyclosiloxane, aqueous layer and extract analysed by AA flame emission
Details: for AA flame emission of aqueous sample, Avg. after: after exposure to D-4; for AA flame emission of aqueous sample, Diff. Avg.: before minus after exposure to D-4

In the case of `C[Si]1(C)O[Si](C)(C)O[Si](C)(C)O[Si](C)(C)O1` [D-4, octamethylcyclotetrasiloxane], the “concentration of D-4/Li^+ complexes within the D-4 phase” value is reported as under 1%, the “AA flame emission of aqueous sample, Avg. after” value (from here on “AA flame emission … Avg. after”) (0.0001M LiCl) is reported as 51987 and the “AA flame emission … Avg. after” value (0.001M LiCl) is reported as 202437. For the same molecule, the “AA flame emission of aqueous sample, Diff. Avg.” value (shortened to “AA flame emission … Diff. Avg.”) (0.001M LiCl) was 666, the “AA flame emission … Avg. after” value (0.01M LiCl) was 138375 and the “AA flame emission … Diff. Avg.” value (0.01M LiCl) was −0.67. The “AA flame emission … Avg. after” value (0.1M LiCl) was 312995, the “AA flame emission … Diff. Avg.” value (0.1M LiCl) was −289 and the “Li^+ ions removed by an extraction” value (Li^+ concentrations close to sea water (10^−5 M), depends on relative volumes and whether D-4 is distilled) was 20-95%. The “D-4 molecules per one Li+ ion extracted” value (based on AA absorptions versus LiCl standard solutions) was about 1000 and the “LiCl yield, calculated amount of lithium recovered” value (single extraction, depends on concentrations and volume ratio of aqueous solution and D-4) was “up to 95%”.
For `C[Si]1(C)O[Si](C)(C)O[Si](C)(C)O[Si](C)(C)O[Si](C)(C)O1` [D-5, decamethylpentacyclosiloxane, reference compound], the “lithium ion concentration in the extract” value (treated with aqueous LiCl, FTIR, 29Si and 13C NMR) was “minimal”.
